Values from PubChem BioAssay AID504793 (Drosophila RNAi Screening Center, 2011).

Purpose: 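Whole-genome screen for parts of the DNA damage checkpoint at G2/M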 (primary screen)
System: Drosophila S2R+ cells
Knock-down reagent: long dsRNA against Drosophila genes, about 0.25 µg dsRNA per well
Duration: 4 days of dsRNA, then 4 hours of drug before read-out
Challenge: doxorubicin 0.5 µM for 4 hours to cause double-strand breaks, in cells also given a low, harmless dose of dsRNA against nbs to sensitise the assay
Measurement: 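Mitotic index as the number of phospho-histone H3-positive cells in each well following doxorubicin, given as raw counts without normalisation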
Scale: mitotic cells: higher = more cells in mitosis, weaker G2 arrest
Call rule: 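Genes are called active only when high mitotic counts were reproduced with independent dsRNAs and mitosis was checked for delay without damage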
Calls: active = confirmed in follow-up tests; inactive = not confirmed
The screen tested about 23,000 reagents; this is a random part of those that have a named target and a result. Over the whole deposit, 62 (0.27%) were called active. 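Calls come from follow-up tests whose scores are not deposited, so confirmed genes may have low counts here; counts are not normalised per plate.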 Raw values are not corrected between plates. A plus sign joins genes that one reagent is predicted to hit.

no.	predicted target	DRSC id	mitotic cells, replicate 1	outcome
1	CG18808	DRSC08539	7	inactive
2	CG14110	DRSC10113	9	inactive
3	PpD6 (Protein phosphatase D6)	DRSC00774	2	inactive
4	PpD6 (Protein phosphatase D6)	DRSC23331	10	inactive
5	CG14232	DRSC19588	4	inactive
6	CG14232	DRSC27714	8	inactive
7	CG18417	DRSC10319	10	inactive
8	CG18417	DRSC23997	10	inactive
9	tex	DRSC16517	8	inactive
10	ReepB (Receptor expression enhancing protein B)	DRSC07150	5	inactive
11	ReepB (Receptor expression enhancing protein B)	DRSC27133	6	inactive
12	Gpdh2 (Glycerol-3-phosphate dehydrogenase 2)	DRSC04346	10	inactive
13	CG9915	DRSC21565	13	inactive
14	CG9915	DRSC27327	4	inactive
15	CG10177	DRSC14201	6	inactive
16	CG10177	DRSC27888	8	inactive
17	morgue (modifier of rpr and grim, ubiquitously expressed)	DRSC00264	2	inactive
18	Vago	DRSC19833	8	inactive
19	Vago	DRSC26320	9	inactive
20	CG18223	DRSC10306	2	inactive
21	bt (bent)	DRSC17129	6	inactive
22	bt (bent)	DRSC17171	12	inactive
23	bt (bent)	DRSC36656	5	inactive
24	fabp + sea	DRSC16114	12	inactive
25	fabp + sea	DRSC16115	4	inactive
26	Pka-C3 (Protein kinase, cAMP-dependent, catalytic subunit 3)	DRSC09402	5	inactive
27	Pka-C3 (Protein kinase, cAMP-dependent, catalytic subunit 3)	DRSC11254	3	inactive
28	Pka-C3 (Protein kinase, cAMP-dependent, catalytic subunit 3)	DRSC25050	7	inactive
29	CG13814 (retired record)	DRSC10069	4	inactive
30	LanA (Laminin A)	DRSC11207	4	inactive
31	Cypl (Cyclophilin-like)	DRSC08362	6	inactive
32	Cypl (Cyclophilin-like)	DRSC25421	6	inactive
33	AlkB	DRSC19115	29	inactive
34	janA (janus A)	DRSC16972	8	inactive
35	janA (janus A)	DRSC26590	6	inactive
36	CG7255	DRSC10790	5	inactive
37	CG6026	DRSC15950	12	inactive
38	rtv (retroactive)	DRSC19541	5	inactive
39	betaCOP (Coat Protein (coatomer) beta)	DRSC20312	18	inactive
40	betaCOP (Coat Protein (coatomer) beta)	DRSC27169	11	inactive
41	Arpc4 (Actin-related protein 2/3 complex, subunit 4)	DRSC02917	6	inactive
42	Arpc4 (Actin-related protein 2/3 complex, subunit 4)	DRSC29608	6	inactive
43	CG43658	DRSC20111	8	inactive
44	CG43658	DRSC25445	5	inactive
45	CG11168	DRSC14292	13	inactive
